These are yes or no findings as the source states them, for the method shown. In cells and extracts the contact can be indirect. Some entries that bind do so weakly or less than the wild type.
Target: CXCR7 (human (endogenous in TPC-1)) (UniProt P25106)
Experiment: co-IP; TPC-1 total protein extract in IP lysis buffer; 1 ug CXCR7 antibody at 4 C overnight, protein A/G agarose beads 2 h at 4 C; IgG as negative control; Western blot for TAGLN2 and CXCR7

Amino acid sequences for entries named in this document (tags omitted).
UniProt P25106: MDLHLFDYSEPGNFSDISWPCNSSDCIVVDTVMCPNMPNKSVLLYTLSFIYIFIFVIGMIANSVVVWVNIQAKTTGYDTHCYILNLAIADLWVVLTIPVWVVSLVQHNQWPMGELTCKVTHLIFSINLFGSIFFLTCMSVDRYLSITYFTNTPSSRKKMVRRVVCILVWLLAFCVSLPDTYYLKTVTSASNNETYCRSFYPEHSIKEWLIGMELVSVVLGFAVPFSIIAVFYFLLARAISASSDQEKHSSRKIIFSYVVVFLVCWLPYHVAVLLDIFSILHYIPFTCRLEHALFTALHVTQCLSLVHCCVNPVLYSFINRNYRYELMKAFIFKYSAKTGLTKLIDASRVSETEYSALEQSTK
UniProt P37802: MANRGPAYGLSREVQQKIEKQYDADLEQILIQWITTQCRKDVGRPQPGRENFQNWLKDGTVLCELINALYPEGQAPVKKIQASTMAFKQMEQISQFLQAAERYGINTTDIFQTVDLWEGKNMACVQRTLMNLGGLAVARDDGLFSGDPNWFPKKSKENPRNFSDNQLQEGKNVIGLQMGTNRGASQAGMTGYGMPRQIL

- binding: binds
Substance: TAGLN2 (Transgelin-2) (from UniProt P37802 1-199)
